± gives the standard deviation of the averaged measurements. This data set is noisy: repeats of one test often differ as much as different tests do.
Compound: CC[C@@H](C)Nc1cc(C(=O)N[C@H]2C[C@H]3CC[C@@H](C2)N3c2ccc(C(=O)C3CC3)cn2)c(C)cc1C(N)=O [XL888]
Assay: phosphopeptide melting temperature shift (XL888 minus DMSO); higher = stabilised by drug treatment
Details: 100 µM; treatment time 2 h; layout: intact cells; SK-Mel 28
Method: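 Phospho-TPP in intact SK-Mel 28 cells treated with 100 uM XL888 or DMSO for 2 h, heated at 10 temperatures (37-67 C) for 3 min, soluble fraction TMT10plex-labelled and TiO2 phospho-enriched. Melting curves were fitted per phosphopeptide; the value is the melting point difference (drug minus vehicle) in each of two biological replicates.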

The chains behind the UniProt entries cited, without tags or fusion partners. Where a name states a change or a piece, a line headed by the entry shows the natural chain unless it says otherwise.
UniProt Q9BPX7: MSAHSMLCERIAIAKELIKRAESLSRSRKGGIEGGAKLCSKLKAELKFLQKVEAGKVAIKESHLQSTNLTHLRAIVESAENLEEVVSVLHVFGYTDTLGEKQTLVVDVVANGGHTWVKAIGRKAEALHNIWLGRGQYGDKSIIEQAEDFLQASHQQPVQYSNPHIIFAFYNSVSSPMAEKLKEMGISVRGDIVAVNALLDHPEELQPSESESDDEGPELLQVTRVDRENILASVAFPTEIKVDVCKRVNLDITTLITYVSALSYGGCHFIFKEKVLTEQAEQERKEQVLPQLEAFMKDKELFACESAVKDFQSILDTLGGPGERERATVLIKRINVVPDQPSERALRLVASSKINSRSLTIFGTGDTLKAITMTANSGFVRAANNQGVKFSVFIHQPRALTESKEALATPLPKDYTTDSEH
UniProt Q9Y2V2: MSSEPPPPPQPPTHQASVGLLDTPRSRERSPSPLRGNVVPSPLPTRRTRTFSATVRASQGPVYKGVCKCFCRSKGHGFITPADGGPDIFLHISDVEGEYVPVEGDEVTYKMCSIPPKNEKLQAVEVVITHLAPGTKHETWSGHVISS
UniProt Q13185: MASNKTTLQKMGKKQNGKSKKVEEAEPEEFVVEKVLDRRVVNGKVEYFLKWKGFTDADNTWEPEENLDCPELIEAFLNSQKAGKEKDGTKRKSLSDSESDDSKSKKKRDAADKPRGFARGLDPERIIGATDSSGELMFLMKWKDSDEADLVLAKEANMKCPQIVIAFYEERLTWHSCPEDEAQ
UniProt Q9H6F5: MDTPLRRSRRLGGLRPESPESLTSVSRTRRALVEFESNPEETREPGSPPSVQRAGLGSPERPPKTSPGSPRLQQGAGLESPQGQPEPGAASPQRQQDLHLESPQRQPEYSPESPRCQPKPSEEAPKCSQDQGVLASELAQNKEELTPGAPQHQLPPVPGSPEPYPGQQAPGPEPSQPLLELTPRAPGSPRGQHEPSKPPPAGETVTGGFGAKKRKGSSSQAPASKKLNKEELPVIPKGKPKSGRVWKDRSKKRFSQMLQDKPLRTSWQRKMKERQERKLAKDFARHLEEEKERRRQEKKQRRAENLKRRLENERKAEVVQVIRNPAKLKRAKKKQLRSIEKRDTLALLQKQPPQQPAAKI
UniProt Q5SW79: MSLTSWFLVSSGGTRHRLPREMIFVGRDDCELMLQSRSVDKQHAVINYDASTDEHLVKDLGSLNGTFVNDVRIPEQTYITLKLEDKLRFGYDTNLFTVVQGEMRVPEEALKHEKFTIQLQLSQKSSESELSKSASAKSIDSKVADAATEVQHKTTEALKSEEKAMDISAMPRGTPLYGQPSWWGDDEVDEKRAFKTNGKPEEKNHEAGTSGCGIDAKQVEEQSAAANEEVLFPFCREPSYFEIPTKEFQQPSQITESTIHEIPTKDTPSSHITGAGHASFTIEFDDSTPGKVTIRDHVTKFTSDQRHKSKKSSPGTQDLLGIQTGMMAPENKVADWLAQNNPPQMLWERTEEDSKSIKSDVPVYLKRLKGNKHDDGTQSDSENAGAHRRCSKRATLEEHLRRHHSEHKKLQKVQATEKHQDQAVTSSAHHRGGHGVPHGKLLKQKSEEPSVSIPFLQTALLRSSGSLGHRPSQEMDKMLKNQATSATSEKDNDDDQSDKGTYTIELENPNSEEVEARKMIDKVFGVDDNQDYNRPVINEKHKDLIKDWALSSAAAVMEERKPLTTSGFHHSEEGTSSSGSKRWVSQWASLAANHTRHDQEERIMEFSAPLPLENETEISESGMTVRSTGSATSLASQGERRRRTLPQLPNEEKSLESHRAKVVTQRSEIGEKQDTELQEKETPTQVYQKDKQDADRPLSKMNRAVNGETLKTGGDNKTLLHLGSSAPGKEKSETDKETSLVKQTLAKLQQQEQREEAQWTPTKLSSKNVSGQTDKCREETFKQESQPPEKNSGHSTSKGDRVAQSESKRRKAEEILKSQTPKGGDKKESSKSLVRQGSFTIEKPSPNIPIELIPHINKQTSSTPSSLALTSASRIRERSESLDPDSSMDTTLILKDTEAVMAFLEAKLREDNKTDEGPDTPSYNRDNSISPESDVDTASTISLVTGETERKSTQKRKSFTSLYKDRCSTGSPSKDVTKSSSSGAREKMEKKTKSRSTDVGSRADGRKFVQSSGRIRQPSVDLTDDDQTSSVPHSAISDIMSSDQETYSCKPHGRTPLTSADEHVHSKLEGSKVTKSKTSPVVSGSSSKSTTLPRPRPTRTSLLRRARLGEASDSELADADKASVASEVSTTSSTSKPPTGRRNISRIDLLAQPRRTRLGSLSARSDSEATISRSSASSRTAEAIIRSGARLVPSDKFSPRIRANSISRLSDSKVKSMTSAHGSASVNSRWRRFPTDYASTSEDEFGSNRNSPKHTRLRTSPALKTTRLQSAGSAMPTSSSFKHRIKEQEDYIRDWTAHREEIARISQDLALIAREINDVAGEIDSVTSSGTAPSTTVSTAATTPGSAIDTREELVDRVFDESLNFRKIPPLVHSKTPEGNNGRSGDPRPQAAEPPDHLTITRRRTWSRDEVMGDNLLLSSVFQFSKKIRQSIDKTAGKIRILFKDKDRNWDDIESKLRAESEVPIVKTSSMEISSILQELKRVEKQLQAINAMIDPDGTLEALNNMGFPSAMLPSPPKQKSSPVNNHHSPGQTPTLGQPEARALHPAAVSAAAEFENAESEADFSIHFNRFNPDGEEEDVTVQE
UniProt Q14839: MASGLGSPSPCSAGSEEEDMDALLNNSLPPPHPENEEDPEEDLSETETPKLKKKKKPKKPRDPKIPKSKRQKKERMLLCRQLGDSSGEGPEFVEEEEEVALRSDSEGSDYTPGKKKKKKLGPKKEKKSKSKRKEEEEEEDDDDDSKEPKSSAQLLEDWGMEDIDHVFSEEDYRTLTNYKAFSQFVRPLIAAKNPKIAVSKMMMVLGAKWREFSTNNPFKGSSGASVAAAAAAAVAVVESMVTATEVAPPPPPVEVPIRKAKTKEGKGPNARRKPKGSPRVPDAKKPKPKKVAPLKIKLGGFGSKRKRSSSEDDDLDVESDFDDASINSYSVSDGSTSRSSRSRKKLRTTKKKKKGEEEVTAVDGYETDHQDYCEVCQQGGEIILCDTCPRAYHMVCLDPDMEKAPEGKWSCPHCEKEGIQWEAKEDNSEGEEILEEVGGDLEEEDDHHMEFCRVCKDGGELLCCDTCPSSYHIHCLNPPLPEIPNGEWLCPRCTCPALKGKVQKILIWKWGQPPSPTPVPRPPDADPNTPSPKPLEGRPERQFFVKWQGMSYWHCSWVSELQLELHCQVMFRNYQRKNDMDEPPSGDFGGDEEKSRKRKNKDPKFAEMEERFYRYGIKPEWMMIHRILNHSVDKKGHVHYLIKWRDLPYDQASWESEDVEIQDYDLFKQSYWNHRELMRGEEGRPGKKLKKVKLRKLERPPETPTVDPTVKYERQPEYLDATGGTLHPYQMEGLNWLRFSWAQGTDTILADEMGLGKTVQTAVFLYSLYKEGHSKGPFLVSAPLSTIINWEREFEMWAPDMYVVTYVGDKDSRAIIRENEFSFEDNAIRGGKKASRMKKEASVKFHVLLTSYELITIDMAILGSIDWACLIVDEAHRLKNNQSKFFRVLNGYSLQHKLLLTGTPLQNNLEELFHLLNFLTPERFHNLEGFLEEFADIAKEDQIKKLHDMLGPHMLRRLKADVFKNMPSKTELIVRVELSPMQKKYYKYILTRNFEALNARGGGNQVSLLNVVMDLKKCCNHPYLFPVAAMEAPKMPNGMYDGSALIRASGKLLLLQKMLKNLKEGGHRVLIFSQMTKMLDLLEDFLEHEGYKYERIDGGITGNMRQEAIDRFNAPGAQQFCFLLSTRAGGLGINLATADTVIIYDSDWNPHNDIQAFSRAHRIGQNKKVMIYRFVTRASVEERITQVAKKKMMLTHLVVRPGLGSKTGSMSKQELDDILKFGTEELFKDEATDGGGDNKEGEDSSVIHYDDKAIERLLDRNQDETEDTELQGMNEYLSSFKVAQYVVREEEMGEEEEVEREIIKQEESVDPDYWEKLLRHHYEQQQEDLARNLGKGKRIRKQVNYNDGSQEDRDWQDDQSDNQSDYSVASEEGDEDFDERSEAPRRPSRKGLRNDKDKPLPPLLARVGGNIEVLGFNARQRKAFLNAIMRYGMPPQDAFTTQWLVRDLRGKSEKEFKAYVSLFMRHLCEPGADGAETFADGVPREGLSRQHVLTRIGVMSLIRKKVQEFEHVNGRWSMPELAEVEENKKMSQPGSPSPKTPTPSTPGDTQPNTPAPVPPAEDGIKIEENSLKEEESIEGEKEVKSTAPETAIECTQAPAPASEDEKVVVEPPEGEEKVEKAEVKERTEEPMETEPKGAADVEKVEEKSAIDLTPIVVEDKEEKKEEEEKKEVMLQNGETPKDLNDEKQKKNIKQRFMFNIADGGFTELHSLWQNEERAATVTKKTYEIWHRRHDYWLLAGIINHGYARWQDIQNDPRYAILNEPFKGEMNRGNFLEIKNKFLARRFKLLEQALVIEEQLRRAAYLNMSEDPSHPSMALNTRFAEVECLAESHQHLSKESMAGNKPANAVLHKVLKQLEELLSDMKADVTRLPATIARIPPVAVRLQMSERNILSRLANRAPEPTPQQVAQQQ
UniProt Q9P2I0: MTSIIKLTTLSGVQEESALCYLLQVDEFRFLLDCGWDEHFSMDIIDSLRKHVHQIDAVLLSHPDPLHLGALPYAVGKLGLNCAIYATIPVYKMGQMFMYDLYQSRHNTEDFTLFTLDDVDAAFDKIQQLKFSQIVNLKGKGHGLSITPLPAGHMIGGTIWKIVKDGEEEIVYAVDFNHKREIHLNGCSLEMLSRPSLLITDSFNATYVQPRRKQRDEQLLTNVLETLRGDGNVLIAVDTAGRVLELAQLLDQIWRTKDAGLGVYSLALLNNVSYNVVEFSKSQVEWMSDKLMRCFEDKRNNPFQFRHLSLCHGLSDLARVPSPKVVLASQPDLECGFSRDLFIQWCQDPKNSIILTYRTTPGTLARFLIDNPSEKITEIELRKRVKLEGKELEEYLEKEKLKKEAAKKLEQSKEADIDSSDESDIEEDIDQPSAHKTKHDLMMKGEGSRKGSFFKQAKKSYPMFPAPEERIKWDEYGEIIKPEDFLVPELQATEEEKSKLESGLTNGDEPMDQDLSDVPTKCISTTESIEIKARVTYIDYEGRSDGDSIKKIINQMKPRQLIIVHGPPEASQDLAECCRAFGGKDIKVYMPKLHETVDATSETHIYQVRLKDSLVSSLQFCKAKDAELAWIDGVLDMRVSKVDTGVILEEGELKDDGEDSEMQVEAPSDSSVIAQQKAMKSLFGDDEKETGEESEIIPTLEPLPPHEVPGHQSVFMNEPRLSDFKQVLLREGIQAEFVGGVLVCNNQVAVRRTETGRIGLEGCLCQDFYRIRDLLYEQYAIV
UniProt Q86XP3: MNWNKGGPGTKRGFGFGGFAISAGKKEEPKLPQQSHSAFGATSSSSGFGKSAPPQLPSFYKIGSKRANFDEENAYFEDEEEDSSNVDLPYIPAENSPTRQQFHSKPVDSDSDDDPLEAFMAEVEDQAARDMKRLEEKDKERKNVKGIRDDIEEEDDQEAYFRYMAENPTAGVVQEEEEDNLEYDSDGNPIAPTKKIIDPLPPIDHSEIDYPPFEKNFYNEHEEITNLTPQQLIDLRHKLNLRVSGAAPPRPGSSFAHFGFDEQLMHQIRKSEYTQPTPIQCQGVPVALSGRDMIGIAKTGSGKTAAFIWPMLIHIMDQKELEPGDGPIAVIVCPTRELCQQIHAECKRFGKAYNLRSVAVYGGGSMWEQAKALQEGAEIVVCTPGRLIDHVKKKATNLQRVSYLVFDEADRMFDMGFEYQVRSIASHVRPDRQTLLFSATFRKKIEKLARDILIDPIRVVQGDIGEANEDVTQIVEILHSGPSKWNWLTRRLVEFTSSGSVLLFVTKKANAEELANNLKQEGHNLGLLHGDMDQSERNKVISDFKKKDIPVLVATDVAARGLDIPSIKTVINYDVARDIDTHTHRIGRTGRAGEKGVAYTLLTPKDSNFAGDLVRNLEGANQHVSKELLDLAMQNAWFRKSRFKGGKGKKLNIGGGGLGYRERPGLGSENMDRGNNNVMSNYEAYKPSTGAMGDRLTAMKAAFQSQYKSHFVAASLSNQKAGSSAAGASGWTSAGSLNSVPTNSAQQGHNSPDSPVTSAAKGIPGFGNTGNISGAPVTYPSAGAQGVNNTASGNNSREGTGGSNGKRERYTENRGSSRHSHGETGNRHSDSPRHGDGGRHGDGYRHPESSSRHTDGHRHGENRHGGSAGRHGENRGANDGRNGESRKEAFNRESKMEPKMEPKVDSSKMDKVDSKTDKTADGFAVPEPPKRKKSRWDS
UniProt Q9NRW4: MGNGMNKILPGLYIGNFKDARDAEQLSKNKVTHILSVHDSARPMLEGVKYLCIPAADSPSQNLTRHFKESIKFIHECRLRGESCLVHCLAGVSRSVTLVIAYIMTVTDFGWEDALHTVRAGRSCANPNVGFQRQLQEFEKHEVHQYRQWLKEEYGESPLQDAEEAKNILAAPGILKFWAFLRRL

Target | phosphopeptide melting temperature shift [°C]
C5orf30 phosphosite_167 (phosphosite position: 167) (UniProt Q96GV9) | 2.77 ± 0.26
C7orf25 phosphosite_208 (phosphosite position: 208) (UniProt Q9BPX7) | 0.658
C7orf25 phosphosite_210 (phosphosite position: 210) (UniProt Q9BPX7) | 0.658
C7orf25 phosphosite_212 (phosphosite position: 212) (UniProt Q9BPX7) | 0.658
CALD1 phosphosite_202 (phosphosite position: 202) (UniProt Q05682) | -0.359
CALU phosphosite_44 (phosphosite position: 44) (UniProt O43852) | 1.07
CAPG phosphosite_212 (phosphosite position: 212) (UniProt P40121) | -0.795
CAPZA1 phosphosite_63 (phosphosite position: 63) (UniProt P52907) | -1.76
CARHSP1 phosphosite_32 (phosphosite position: 32) (UniProt Q9Y2V2) | 0.874 ± 2
CBL phosphosite_452 (phosphosite position: 452) (UniProt P22681) | 1.06
CBX3 phosphosite_93 (phosphosite position: 93) (UniProt Q13185) | 0.434 ± 0.56
CBX3 phosphosite_97 (phosphosite position: 97) (UniProt Q13185) | 0.404 ± 0.19
CBX3 phosphosite_99 (phosphosite position: 99) (UniProt Q13185) | 0.787 ± 0.55
CBX3 phosphosite_176 (phosphosite position: 176) (UniProt Q13185) | 3.98
CCDC9 phosphosite_521 (phosphosite position: 521) (UniProt Q9Y3X0) | 0.12
CCDC86 phosphosite_18 (phosphosite position: 18) (UniProt Q9H6F5) | -1.33
CCDC86 phosphosite_91 (phosphosite position: 91) (UniProt Q9H6F5) | -0.665
CCDC86 phosphosite_102 (phosphosite position: 102) (UniProt Q9H6F5) | 2.99
CCDC86 phosphosite_113 (phosphosite position: 113) (UniProt Q9H6F5) | 2.29
CCDC97 phosphosite_337 (phosphosite position: 337) (UniProt Q96F63) | -1.71
CCNH phosphosite_315 (phosphosite position: 315) (UniProt P51946) | 3.43
CD2BP2 phosphosite_195 (phosphosite position: 195) (UniProt O95400) | -1.8
CEBPZ phosphosite_629 (phosphosite position: 629) (UniProt Q03701) | 1.76 ± 1.4
CEP170 phosphosite_359 (phosphosite position: 359) (UniProt Q5SW79) | 0.0461 ± 1

Four entries drawn at random from the list so far, as already listed:
Target | phosphopeptide melting temperature shift [°C]
CEP170 phosphosite_359 (phosphosite position: 359) (UniProt Q5SW79) | 0.0461 ± 1
CARHSP1 phosphosite_32 (phosphosite position: 32) (UniProt Q9Y2V2) | 0.874 ± 2
CALD1 phosphosite_202 (phosphosite position: 202) (UniProt Q05682) | -0.359
CCDC86 phosphosite_113 (phosphosite position: 113) (UniProt Q9H6F5) | 2.29

The list goes on.

Target | phosphopeptide melting temperature shift [°C]
CEP170 phosphosite_501 (phosphosite position: 501) (UniProt Q5SW79) | 0.78
CEP170 phosphosite_930 (phosphosite position: 930) (UniProt Q5SW79) | -1.71
CEP170 phosphosite_933 (phosphosite position: 933) (UniProt Q5SW79) | -1.71
CEP170 phosphosite_1019 (phosphosite position: 1019) (UniProt Q5SW79) | -3.6
CEP170 phosphosite_1529 (phosphosite position: 1529) (UniProt Q5SW79) | 1.68 ± 1.7
CHD4 phosphosite_515 (phosphosite position: 515) (UniProt Q14839) | 0.505 ± 0.15
CHD4 phosphosite_531 (phosphosite position: 531) (UniProt Q14839) | 0.724
CLASP2 phosphosite_596 (phosphosite position: 596) (UniProt O75122) | 1.79 ± 1.3
COPA phosphosite_173 (phosphosite position: 173) (UniProt P53621) | -0.0275
CPSF2 phosphosite_419 (phosphosite position: 419) (UniProt Q9P2I0) | 1.13
CPSF2 phosphosite_420 (phosphosite position: 420) (UniProt Q9P2I0) | 1.13
CPSF2 phosphosite_423 (phosphosite position: 423) (UniProt Q9P2I0) | 1.13
CRKL phosphosite_42 (phosphosite position: 42) (UniProt P46109) | -1.04 ± 0.52
CROCC phosphosite_512 (phosphosite position: 512) (UniProt Q5TZA2) | -1.15 ± 1.2
CRTC2 phosphosite_70 (phosphosite position: 70) (UniProt Q53ET0) | -0.902 ± 1.6
CSTF3 phosphosite_691 (phosphosite position: 691) (UniProt Q12996) | 2.45
CTDP1 phosphosite_872 (phosphosite position: 872) (UniProt Q9Y5B0) | -0.17
CTPS2 phosphosite_568 (phosphosite position: 568) (UniProt Q9NRF8) | 0.337 ± 1.2
CTPS2 phosphosite_571 (phosphosite position: 571) (UniProt Q9NRF8) | -4.07
CTR9 phosphosite_970 (phosphosite position: 970) (UniProt Q6PD62) | 0.94
CTR9 phosphosite_1081 (phosphosite position: 1081) (UniProt Q6PD62) | 0.91
CTR9 phosphosite_1085 (phosphosite position: 1085) (UniProt Q6PD62) | 0.0813
CTR9 phosphosite_1087 (phosphosite position: 1087) (UniProt Q6PD62) | 1.05
CTTNBP2NL phosphosite_481 (phosphosite position: 481) (UniProt Q9P2B4) | -3.31

Target | phosphopeptide melting temperature shift [°C]
DBN1 phosphosite_381 (phosphosite position: 381) (UniProt Q16643) | -1.38 ± 0.54
DCK phosphosite_74 (phosphosite position: 74) (UniProt P27707) | 1.22
DDX42 phosphosite_109 (phosphosite position: 109) (UniProt Q86XP3) | 0.4 ± 0.64
DDX42 phosphosite_111 (phosphosite position: 111) (UniProt Q86XP3) | 0.4 ± 0.64
DDX42 phosphosite_185 (phosphosite position: 185) (UniProt Q86XP3) | 0.351 ± 1.9
DDX46 phosphosite_804 (phosphosite position: 804) (UniProt Q7L014) | -0.718 ± 0.27
DIDO1 phosphosite_898 (phosphosite position: 898) (UniProt Q9BTC0) | 2.74
DIS3L2 phosphosite_875 (phosphosite position: 875) (UniProt Q8IYB7) | -0.0578 ± 0.57
DNAJC17 phosphosite_112 (phosphosite position: 112) (UniProt Q9NVM6) | 5.79
DNAJC21 phosphosite_370 (phosphosite position: 370) (UniProt Q5F1R6) | 2.02
DNMT1 phosphosite_714 (phosphosite position: 714) (UniProt P26358) | 0.818 ± 0.56
DOCK5 phosphosite_1766 (phosphosite position: 1766) (UniProt Q9H7D0) | -0.0603
DOCK5 phosphosite_1789 (phosphosite position: 1789) (UniProt Q9H7D0) | 0.997
DTX3L phosphosite_532 (phosphosite position: 532) (UniProt Q8TDB6) | 2.59 ± 0.68
DUSP22 phosphosite_58 (phosphosite position: 58) (UniProt Q9NRW4) | 1.85
DYNC1LI1 phosphosite_213 (phosphosite position: 213) (UniProt Q9Y6G9) | 0.691
EEF1D phosphosite_147 (phosphosite position: 147) (UniProt P29692) | 1.13
EEF1D phosphosite_162 (phosphosite position: 162) (UniProt P29692) | 0.749 ± 0.42
EEF2K phosphosite_470 (phosphosite position: 470) (UniProt O00418) | 0.963
EEF2K phosphosite_474 (phosphosite position: 474) (UniProt O00418) | 0.963
EIF2S2 phosphosite_2 (phosphosite position: 2) (UniProt P20042) | -0.627
EIF2S2 phosphosite_31 (phosphosite position: 31) (UniProt P20042) | 1.5
EIF3B phosphosite_154 (phosphosite position: 154) (UniProt P55884) | 0.144

Source: the supplement of paper PMC5836539
